Measured values as given in publication PMC8208971, “Copper-binding anticancer peptides from the piscidin family: an expanded mechanism that encompasses physical and chemical bilayer disruption” (Scientific Reports, 2021).
Residues, ends and D or L forms follow the SMILES beside them.

Assay: Neutron reflectometry: peptide distribution in tethered lipid bilayer
Conditions: NR, 3 µmol/L peptide; for Peptide fraction in headgroups total / Peptide fraction in hydrocarbons total / Center-of-mass (COM) position of peptide with respect to the bilayer center / Membrane-associated peptide (volume surface density): POPC tBLM; for Center-of-mass (COM) position of peptide with respect to the bilayer center: 20 mmol/L Tris pH 7.5, 30 min incubation; for Membrane-associated peptide (volume surface density): ± one standard deviation; for Peptide fraction in outer leaflet: leaflet exposed to bulk fluid; for Peptide fraction in inner leaflet: leaflet proximal to gold substrate

Structure (SMILES): CC[C@H](C)[C@H](NC(=O)CNC(=O)[C@H](CCCNC(=N)N)NC(=O)[C@H](Cc1ccccc1)NC(=O)[C@@H](NC(=O)[C@H](Cc1c[nH]cn1)NC(=O)[C@H](Cc1c[nH]cn1)NC(=O)[C@H](Cc1ccccc1)NC(=O)[C@@H](N)Cc1ccccc1)[C@@H](C)CC)C(=O)N[C@H](C(=O)N[C@@H](Cc1c[nH]cn1)C(=O)N[C@H](C(=O)NCC(=O)N[C@@H](CCCCN)C(=O)N[C@H](C(=O)N[C@H](C(=O)N[C@@H](Cc1c[nH]cn1)C(=O)N[C@@H](CCCNC(=N)N)C(=O)N[C@@H](CC(C)C)C(=O)N[C@H](C(=O)N[C@H](C(=O)NCC(N)=O)[C@@H](C)O)C(C)C)[C@@H](C)CC)[C@@H](C)O)C(C)C)C(C)C [P1, piscidin 1] (H-FFHHIFRGIVHVGKTIHRLVTG-NH2)
- Peptide fraction in headgroups total: 33 ± 9%
- Peptide fraction in hydrocarbons total: 50 ± 10%
- Center-of-mass (COM) position of peptide with respect to the bilayer center: 2 ± 2 Å
- Membrane-associated peptide (volume surface density): 10 ± 3 Å3/Å2
- Peptide fraction in outer leaflet: 43 ± 6%
- Peptide fraction in inner leaflet: 40 ± 7%

Structure (SMILES): CC[C@H](C)[C@H](NC(=O)CNC(=O)[C@H](CCCNC(=N)N)NC(=O)[C@H](Cc1ccccc1)NC(=O)[C@@H](NC(=O)[C@H](Cc1c[nH]cn1)NC(=O)[C@H](Cc1c[nH]cn1)NC(=O)[C@H](Cc1ccccc1)NC(=O)[C@@H](N)Cc1ccccc1)[C@@H](C)CC)C(=O)N[C@H](C(=O)N[C@@H](Cc1c[nH]cn1)C(=O)N[C@H](C(=O)NCC(=O)N[C@@H](CCCCN)C(=O)N[C@H](C(=O)N[C@H](C(=O)N[C@@H](Cc1c[nH]cn1)C(=O)N[C@@H](CCCNC(=N)N)C(=O)N[C@@H](CC(C)C)C(=O)N[C@H](C(=O)N[C@H](C(=O)NCC(N)=O)[C@@H](C)O)C(C)C)[C@@H](C)CC)[C@@H](C)O)C(C)C)C(C)C [P1-Cu^2+] (H-FFHHIFRGIVHVGKTIHRLVTG-NH2; N-terminus assumed)
- Peptide fraction in headgroups total: 34 ± 2%
- Peptide fraction in hydrocarbons total: 46 ± 3%
- Center-of-mass (COM) position of peptide with respect to the bilayer center: 1 ± 1 Å
- Membrane-associated peptide (volume surface density): 12 ± 2 Å3/Å2
- Peptide fraction in outer leaflet: 32 ± 4%
- Peptide fraction in inner leaflet: 49 ± 6%

Structure (SMILES): CC[C@H](C)[C@H](NC(=O)CNC(=O)[C@H](CCCNC(=N)N)NC(=O)[C@H](Cc1ccccc1)NC(=O)[C@@H](NC(=O)[C@H](Cc1c[nH]cn1)NC(=O)[C@H](Cc1c[nH]cn1)NC(=O)[C@@H](NC(=O)[C@@H](N)Cc1ccccc1)[C@@H](C)CC)[C@@H](C)CC)C(=O)N[C@H](C(=O)N[C@@H](Cc1c[nH]cn1)C(=O)N[C@@H](C)C(=O)NCC(=O)N[C@@H](CCCNC(=N)N)C(=O)N[C@@H](CO)C(=O)N[C@H](C(=O)NCC(=O)N[C@@H](CCCNC(=N)N)C(=O)N[C@@H](Cc1ccccc1)C(=O)N[C@@H](CC(C)C)C(=O)N[C@H](C(=O)NCC(N)=O)[C@@H](C)O)[C@@H](C)CC)C(C)C [P3, piscidin 3] (H-FIHHIFRGIVHAGRSIGRFLTG-NH2)
- Peptide fraction in headgroups total: 45 ± 6%
- Peptide fraction in hydrocarbons total: 31 ± 8%
- Center-of-mass (COM) position of peptide with respect to the bilayer center: 5 ± 2 Å
- Membrane-associated peptide (volume surface density): 8 ± 2 Å3/Å2
- Peptide fraction in outer leaflet: 44 ± 6%
- Peptide fraction in inner leaflet: 32 ± 6%

Structure (SMILES): CC[C@H](C)[C@H](NC(=O)CNC(=O)[C@H](CCCNC(=N)N)NC(=O)[C@H](Cc1ccccc1)NC(=O)[C@@H](NC(=O)[C@H](Cc1c[nH]cn1)NC(=O)[C@H](Cc1c[nH]cn1)NC(=O)[C@@H](NC(=O)[C@@H](N)Cc1ccccc1)[C@@H](C)CC)[C@@H](C)CC)C(=O)N[C@H](C(=O)N[C@@H](Cc1c[nH]cn1)C(=O)N[C@@H](C)C(=O)NCC(=O)N[C@@H](CCCNC(=N)N)C(=O)N[C@@H](CO)C(=O)N[C@H](C(=O)NCC(=O)N[C@@H](CCCNC(=N)N)C(=O)N[C@@H](Cc1ccccc1)C(=O)N[C@@H](CC(C)C)C(=O)N[C@H](C(=O)NCC(N)=O)[C@@H](C)O)[C@@H](C)CC)C(C)C [P3-Cu^2+] (H-FIHHIFRGIVHAGRSIGRFLTG-NH2; N-terminus assumed)
- Peptide fraction in headgroups total: 37 ± 3%
- Peptide fraction in hydrocarbons total: 37 ± 5%
- Center-of-mass (COM) position of peptide with respect to the bilayer center: 3 ± 1 Å
- Membrane-associated peptide (volume surface density): 11 ± 2 Å3/Å2
- Peptide fraction in outer leaflet: 43 ± 3%
- Peptide fraction in inner leaflet: 32 ± 5%
